PubChem BioAssay AID504774 – Drosophila RNAi Screening Center, 2011

- Aim: 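Knock-downs that shift viability of MMS-exposed cells relative to untreated ones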 (primary screen)
- System: Drosophila Kc167 cells
- Reagents: long dsRNA against Drosophila genes, about 0.25 µg dsRNA per well
- Duration: about 6 days: 3 days knock-down, then 3 days with or without MMS
- Treatment: methyl methanesulphonate 0.004% (w/v) for 3 days after knock-down
- Detection: 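ATP-dependent luminescence as a measure of live cells in MMS-exposed wells, quantile normalised within each plate, with replicate values also given as a mean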
- Direction: mean viability with MMS and viability with MMS: higher = more surviving cells after MMS
The deposit covers about 23,000 reagents; shown is a random part of those that have a named target and a result. 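Values are quantile-normalised luminescence on an arbitrary scale; higher means more cells surviving MMS.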 Reagents against one gene are numbered here. A plus sign joins genes that one reagent is predicted to hit.

| Gene | dsRNA no. | mean viability with MMS | viability with MMS, replicate 1 | viability with MMS, replicate 2 |
| --- | --- | --- | --- | --- |
| CG31467 | 1 | 3.60e6 | 4.06e6 | 4.06e6 |
| pit | 1 | 3.37e6 | 3.78e6 | 3.90e6 |
| pit | 2 | 3.69e6 | 4.33e6 | 3.99e6 |
| Dso1 | 1 | 3.36e6 | 3.88e6 | 3.85e6 |
| CG15127 | 1 | 3.58e6 | 4.01e6 | 4.09e6 |
| CG15127 | 2 | 3.60e6 | 4.04e6 | 4.12e6 |
| CG12688 (retired record) | 1 | 3.49e6 | 4.26e6 | 3.66e6 |
| CG12688 (retired record) | 2 | 3.56e6 | 4.20e6 | 3.90e6 |
| Cnep1r2 | 1 | 3.77e6 | 4.25e6 | 4.31e6 |
| CG32027 (retired record) | 1 | 3.38e6 | 3.92e6 | 3.78e6 |
| CG18547 | 1 | 3.33e6 | 3.86e6 | 3.77e6 |
| CG7322 | 1 | 3.56e6 | 4.09e6 | 3.97e6 |
| yps | 1 | 3.48e6 | 3.85e6 | 4.02e6 |
| rod | 1 | 3.43e6 | 3.84e6 | 3.95e6 |
| CG14131 | 1 | 3.54e6 | 3.98e6 | 4.04e6 |
| GNBP3 | 1 | 3.51e6 | 4.01e6 | 3.96e6 |
| CG5565 | 1 | 3.46e6 | 3.89e6 | 3.94e6 |
| Cbp80 | 1 | 3.05e6 | 3.18e6 | 3.68e6 |
| CG17124 | 1 | 3.73e6 | 4.37e6 | 4.08e6 |
| CG32213 + CG12519 + 825-Oak + 1 more | 1 | 3.61e6 | 4.16e6 | 4.01e6 |
| CG18480 | 1 | 3.60e6 | 4.00e6 | 4.21e6 |
| Kdm3 | 1 | 3.63e6 | 4.11e6 | 4.06e6 |
| CG2070 | 1 | 3.38e6 | 3.86e6 | 3.81e6 |
| fau | 1 | 3.27e6 | 3.81e6 | 3.75e6 |
| fau | 2 | 3.53e6 | 3.88e6 | 4.14e6 |
| fau | 3 | 3.71e6 | 4.11e6 | 4.32e6 |
| fau | 4 | 3.55e6 | 4.05e6 | 4.00e6 |
| fau | 5 | 3.70e6 | 4.23e6 | 4.07e6 |
| fau | 6 | 3.66e6 | 4.12e6 | 4.11e6 |
| Use1 | 1 | 3.41e6 | 3.75e6 | 3.95e6 |
| CG34283 | 1 | 1.76e6 | 4.07e6 | 3.79e6 |
| jigr1 | 1 | 3.69e6 | 4.08e6 | 4.23e6 |
| jigr1 | 2 | 3.47e6 | 3.98e6 | 3.85e6 |
| jigr1 | 3 | 3.62e6 | 4.11e6 | 4.04e6 |
| CG32982 | 1 | 3.19e6 | 3.63e6 | 3.59e6 |
| CG32982 | 2 | 3.74e6 | 4.04e6 | 4.46e6 |
| CG32982 | 3 | 3.65e6 | 4.07e6 | 4.07e6 |
| CG32982 | 4 | 3.81e6 | 4.58e6 | 4.10e6 |
| CG32982 | 5 | 3.57e6 | 4.11e6 | 3.95e6 |
| e(y)3 | 1 | 3.61e6 | 3.94e6 | 4.28e6 |
| CG10116 | 1 | 3.38e6 | 3.81e6 | 3.82e6 |
| CG12682 | 1 | 3.55e6 | 4.09e6 | 3.97e6 |
| CG5290 | 1 | 3.56e6 | 4.07e6 | 4.02e6 |
| fd96Cb | 1 | 3.53e6 | 3.94e6 | 4.04e6 |
| CG33757 | 1 | 3.49e6 | 3.98e6 | 3.92e6 |
| RpS23 | 1 | 3.10e6 | 3.62e6 | 3.66e6 |
| CG8353 | 1 | 3.57e6 | 4.07e6 | 4.03e6 |
| Cpr47Eb | 1 | 3.52e6 | 3.90e6 | 3.99e6 |
| fd3F (retired record) + Crg-1 | 1 | 3.45e6 | 3.90e6 | 3.94e6 |
| Tdh | 1 | 3.59e6 | 4.11e6 | 4.01e6 |
| Crtc | 1 | 3.06e6 | 3.58e6 | 3.56e6 |
| Crtc | 2 | 3.63e6 | 4.23e6 | 4.03e6 |
| CG11180 | 1 | 3.58e6 | 4.03e6 | 4.10e6 |
| loqs | 1 | 3.50e6 | 4.02e6 | 3.94e6 |
| Polr3E | 1 | 3.24e6 | 3.64e6 | 3.70e6 |
| CG6565 | 1 | 3.67e6 | 4.04e6 | 4.34e6 |
| Mics1 | 1 | 3.81e6 | 4.30e6 | 4.25e6 |
| Cyp6a22 | 1 | 3.43e6 | 3.85e6 | 3.90e6 |
| CG9733 | 1 | 3.38e6 | 3.75e6 | 3.84e6 |
| CG11679 | 1 | 3.43e6 | 3.68e6 | 3.88e6 |
| CG13563 | 1 | 3.52e6 | 3.98e6 | 4.02e6 |
| CG7607 | 1 | 3.62e6 | 4.07e6 | 4.08e6 |
| Ostgamma | 1 | 3.64e6 | 4.20e6 | 4.09e6 |
| clu | 1 | 3.43e6 | 3.93e6 | 3.87e6 |
| CG7115 | 1 | 3.56e6 | 4.06e6 | 4.02e6 |
| CG7542 | 1 | 3.60e6 | 4.05e6 | 4.10e6 |
| lncRNA:roX2 | 1 | 3.52e6 | 3.93e6 | 4.06e6 |
| CG32214 | 1 | 3.51e6 | 3.88e6 | 4.10e6 |
| CG13066 | 1 | 3.56e6 | 3.98e6 | 4.09e6 |
| CG30389 | 1 | 3.33e6 | 3.79e6 | 3.07e6 |
| CG30389 | 2 | 3.44e6 | 3.94e6 | 3.84e6 |
| CG42673 | 1 | 3.53e6 | 4.03e6 | 3.98e6 |
| CG42673 | 2 | 2.83e6 | 3.54e6 | 3.53e6 |
| CG42673 | 3 | 3.74e6 | 4.22e6 | 4.18e6 |
| CG42673 | 4 | 3.69e6 | 4.16e6 | 4.14e6 |
| CG42673 | 5 | 3.80e6 | 4.38e6 | 4.15e6 |
| CG42673 | 6 | 3.68e6 | 4.11e6 | 4.16e6 |
| HERC2 | 1 | 3.53e6 | 4.03e6 | 3.99e6 |
| CG42579 | 1 | 3.53e6 | 4.04e6 | 3.97e6 |
| Mink | 1 | 3.51e6 | 4.02e6 | 3.95e6 |
| nrv2 | 1 | 3.27e6 | 3.71e6 | 3.70e6 |
| nrv2 | 2 | 3.41e6 | 3.80e6 | 3.83e6 |
| Cyp12a4 | 1 | 3.43e6 | 3.99e6 | 3.82e6 |
| CG10353 | 1 | 3.57e6 | 4.07e6 | 4.01e6 |
| CG14220 | 1 | 3.45e6 | 3.94e6 | 3.89e6 |
| TyrRS | 1 | 3.38e6 | 3.84e6 | 3.79e6 |
| Uxs | 1 | 3.50e6 | 3.96e6 | 3.97e6 |

Ordered by “viability with MMS, replicate 1” (high to low): some entries from above
| Gene | dsRNA no. | mean viability with MMS | viability with MMS, replicate 1 | viability with MMS, replicate 2 |
| --- | --- | --- | --- | --- |
| fau | 5 | 3.70e6 | 4.23e6 | 4.07e6 |
| fau | 6 | 3.66e6 | 4.12e6 | 4.11e6 |
| fau | 3 | 3.71e6 | 4.11e6 | 4.32e6 |
| jigr1 | 3 | 3.62e6 | 4.11e6 | 4.04e6 |
| jigr1 | 1 | 3.69e6 | 4.08e6 | 4.23e6 |
| CG34283 | 1 | 1.76e6 | 4.07e6 | 3.79e6 |
| fau | 4 | 3.55e6 | 4.05e6 | 4.00e6 |
| CG32982 | 2 | 3.74e6 | 4.04e6 | 4.46e6 |
| jigr1 | 2 | 3.47e6 | 3.98e6 | 3.85e6 |
| fau | 2 | 3.53e6 | 3.88e6 | 4.14e6 |
| CG2070 | 1 | 3.38e6 | 3.86e6 | 3.81e6 |
| fau | 1 | 3.27e6 | 3.81e6 | 3.75e6 |
| Use1 | 1 | 3.41e6 | 3.75e6 | 3.95e6 |
| CG32982 | 1 | 3.19e6 | 3.63e6 | 3.59e6 |
